Results from patent US20060051805.

Chains of the proteins cited; added tags and fusions are not shown. A line that says so, or that is headed by a name, gives the form on record, which may keep a tag or linker.
UniProt P20226, whole entry: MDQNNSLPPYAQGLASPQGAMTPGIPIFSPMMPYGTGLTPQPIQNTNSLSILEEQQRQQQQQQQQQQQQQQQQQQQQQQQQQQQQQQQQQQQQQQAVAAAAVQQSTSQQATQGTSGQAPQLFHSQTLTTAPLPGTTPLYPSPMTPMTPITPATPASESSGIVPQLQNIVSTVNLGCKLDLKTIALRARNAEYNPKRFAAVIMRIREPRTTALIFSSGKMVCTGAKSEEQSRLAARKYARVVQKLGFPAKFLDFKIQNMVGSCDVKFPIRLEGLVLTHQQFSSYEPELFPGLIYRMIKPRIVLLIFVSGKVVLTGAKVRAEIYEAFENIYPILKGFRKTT
TFIID + TFIIB complex (Homo sapiens), one chain, as listed by the source, chain 2 of 2: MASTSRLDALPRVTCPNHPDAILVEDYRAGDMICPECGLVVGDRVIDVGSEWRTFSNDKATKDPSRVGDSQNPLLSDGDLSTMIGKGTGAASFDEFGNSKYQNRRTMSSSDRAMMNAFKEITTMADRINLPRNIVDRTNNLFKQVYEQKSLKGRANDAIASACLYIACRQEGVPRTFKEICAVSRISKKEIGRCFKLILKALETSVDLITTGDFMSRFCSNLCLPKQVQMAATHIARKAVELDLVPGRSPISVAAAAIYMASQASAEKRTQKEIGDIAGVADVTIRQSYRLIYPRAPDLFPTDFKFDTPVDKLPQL
TFIID + TFIIB complex (Homo sapiens), one chain, as listed by the source, chain 1 of 2: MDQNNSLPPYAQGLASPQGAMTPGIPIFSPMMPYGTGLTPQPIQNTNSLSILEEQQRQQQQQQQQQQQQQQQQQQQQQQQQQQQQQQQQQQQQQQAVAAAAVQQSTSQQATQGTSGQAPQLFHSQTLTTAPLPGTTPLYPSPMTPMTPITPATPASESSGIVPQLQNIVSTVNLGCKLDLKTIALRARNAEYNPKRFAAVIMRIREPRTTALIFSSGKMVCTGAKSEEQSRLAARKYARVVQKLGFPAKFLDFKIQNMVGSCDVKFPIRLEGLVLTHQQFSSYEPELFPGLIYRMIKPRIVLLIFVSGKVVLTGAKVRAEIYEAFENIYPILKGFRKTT

Tests used:
[1] = target: TFIID (TATA box binding protein) (Homo sapiens) (UniProt P20226); test: binding assay; conditions: [none], fluorescence correlation spectroscopy, diffusion time 178 to 237 microseconds, 5 nM DNA, 50 nM protein, purified recombinant protein, protein details: Promega, label: TAMRA, letters built from the parent sequence and the stated change
[2] = system: TFIID + TFIIB complex (Homo sapiens); test: binding assay; conditions: [none], fluorescence correlation spectroscopy, TFIIB added to TFIID-DNA complex, 237 to 295 microseconds, 435 with anti-TFIIB antibody, 5 nM DNA, 50 nM each protein, purified recombinant protein, protein details: Promega, label: TAMRA, letters built from the parent sequence and the stated change

“CGAGAGCATATAAGGTGAGGTAGGA / TCCTACCTCACCTTATATGCTCTGC [25-mer oligonucleotide of TFIID-binding site]”: binds [1]; binds [2].

The exact form of at least one protein or probe is not confirmed.
